Assay results reported in patent publication US20200283521A1.
Substitutions are numbered along the chain they refer to. These are yes or no findings as the source states them, for the method shown. Some results given as binding are weak or reduced against the parent protein; the word gives no strength.

Chains of the proteins cited; added tags and fusions are not shown. Lines headed by an entry give the natural chain unless they say otherwise; changes in a name come on top. A line that says so, or that is headed by a name, gives the form on record, which may keep a tag or linker.
human C-KIT short isoform (NM_001093772) on HEK293 cells (P10721, form named): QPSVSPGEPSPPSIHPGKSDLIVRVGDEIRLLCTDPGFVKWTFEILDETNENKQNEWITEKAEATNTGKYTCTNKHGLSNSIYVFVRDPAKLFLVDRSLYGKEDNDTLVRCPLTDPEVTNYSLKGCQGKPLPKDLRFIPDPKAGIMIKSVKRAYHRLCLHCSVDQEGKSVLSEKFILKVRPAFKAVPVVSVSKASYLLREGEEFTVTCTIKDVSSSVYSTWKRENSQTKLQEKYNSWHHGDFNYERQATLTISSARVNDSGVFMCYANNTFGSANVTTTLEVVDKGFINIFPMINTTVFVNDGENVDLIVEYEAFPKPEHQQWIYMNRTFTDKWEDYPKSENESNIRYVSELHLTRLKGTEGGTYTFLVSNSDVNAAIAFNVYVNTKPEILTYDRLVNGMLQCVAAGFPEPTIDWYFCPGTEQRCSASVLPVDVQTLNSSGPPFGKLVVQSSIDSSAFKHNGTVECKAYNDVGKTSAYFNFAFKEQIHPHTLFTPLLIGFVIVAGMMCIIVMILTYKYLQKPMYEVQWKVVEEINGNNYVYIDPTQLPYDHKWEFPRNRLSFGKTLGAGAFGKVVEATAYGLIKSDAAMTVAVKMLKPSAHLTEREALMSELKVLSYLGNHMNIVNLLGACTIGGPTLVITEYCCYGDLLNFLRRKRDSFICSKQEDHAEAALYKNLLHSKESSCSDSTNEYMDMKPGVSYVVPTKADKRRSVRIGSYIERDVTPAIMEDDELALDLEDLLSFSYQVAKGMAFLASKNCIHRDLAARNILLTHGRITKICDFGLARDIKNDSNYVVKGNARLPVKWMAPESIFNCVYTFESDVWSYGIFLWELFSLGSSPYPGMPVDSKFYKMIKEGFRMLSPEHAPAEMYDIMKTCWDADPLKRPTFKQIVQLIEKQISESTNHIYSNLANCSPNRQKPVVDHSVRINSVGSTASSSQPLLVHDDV

B1: MH5.22 (antibody, IgG1, V domains shown)
VH: QVQLVQSGAEVKKPGASVKVSCKASGYTFTDFYMNWVRQAPGQGLEWMGRIYPASGNTYYAQKFQGRVTMTRDTSTSTVYMELSSLRSEDTAVYYCARGVWYYDYWGQGTLVTVSS
VL: DIQMTQSPSSLSASVGDRVTITCRASQGIRTNLAWFQQKPGKAPKSLIYAASSLQSGVPSRFSGSGSGTDFTLTISSLQPEDFATYYCQQYANYPRTFGGGTKVEIK
B2: F-B11 (antibody, IgG1, V domains shown)
VH: B1 VH with F32Y, A54G, W101Y, Y103L
VL: B1 VL with S53Y, L54R, A92N, N93S
B3: C-B12 (antibody, IgG1, V domains shown)
VH: B1 VH with F32Y, A54G, W101Y, Y102E, Y103F
VL: B1 VL with I29V, T31N, S53Y, L54R, A92N, N93S
B4: E-E10 (antibody, IgG1, V domains shown)
VH: B1 VH with F32Y, A54G, Y103F
VL: B1 VL with I29V, L33V, A50S, A92N, N93S
B5: E-G7 (antibody, IgG1, V domains shown)
VH: B1 VH with F32Y, A54G, W101Y, Y103F, Y105E
VL: B1 VL with I29V, L33V, A50S, L54R, A92N, N93S
B6: C-A7 (antibody, IgG1, V domains shown)
VH: B1 VH with F32Y, M48I, A54G, W101Y, Y103F, Y105S
VL: B1 VL with I29V, T31N, L33V, A50Y, A92N, N93S
B7: D-D5 (antibody, IgG1, V domains shown)
VH: B1 VH with F32Y, A54G, W101Y
VL: B1 VL with I29V, A50S, A92N, N93S
B8: F-F2 (antibody, IgG1, V domains shown)
VH: B1 VH with F32Y, A54G, W101Y, Y103Q
VL: B1 VL with I29V, L33V, L54R, A92N, N93S
B9: D-D9 (antibody, IgG1, V domains shown)
VH: B1 VH with F32Y, A54G, W101Y, Y103L
VL: B1 VL with I29V, L33V, A50S, A92N, N93S
B10: D-A10 (antibody, IgG1, V domains shown)
VH: B1 VH with F32Y, A54G, W101Y, Y103F, Y105T
VL: B1 VL with I29V, L54R, A92N, N93S
B11: C-A5 (antibody, IgG1, V domains shown)
VH: B1 VH with F32Y, A54G, W101Y, Y102H, Y103F
VL: B1 VL with I29V, T31N, L33V, S53Y, A92N, N93S
B12: MH14 (antibody, IgG1, V domains shown)
VH: B1 VH with F32Y, A54G, W101Y, Y103L
VL: B1 VL with I29V, A92N, N93S
B13: MH15 (antibody, IgG1, V domains shown)
VH: B1 VH with F32Y, A54G, W101Y, Y103L
VL: B1 VL with I29V, A92N, N93A
B14: humanized h37M, human IgG1 (antibody, V domains shown)
VH: QVQLVQSGAEVKKPGASVKLSCKASGYTFTDYYINWVRQAPGKGLEWIARIYPGSGNTYYNEKFKGRATLTADKSTSTAYMQLSSLRSEDTAVYFCARGVYYFDYWGQGTTVTVSS
VL: DIVMTQSPSSLSASVGDRVTITCKASQNVRTNVAWYQQKPGKAPKALIYSASYRYSGVPDRFTGSGSGTDFTLTISSLQPEDFADYFCQQYNSYPRTFGGGTKVEIK
B15: MH5, IgG1-3M format (antibody, V domains shown)
VH: B1 VH with F32Y, A54G, W101Y
VL: B1 VL with A50S
B16: MH1, IgG1-3M format (antibody, V domains shown)
VH: B1 VH with F32Y, A54G, W101Y
VL: B1 VL with A92N, N93S
B17: h37M-IgG1-3M (antibody, V domains shown)
VH: B14 VH
VL: B14 VL

These binders were tested against human C-KIT-Fc (human) (UniProt P10721) (assay: direct ELISA).

binding, binds:
B1
B2
B3
B4
B5
B6
B7
B8
B9
B10
B11
B12
B13
B14

The binders below were run against human C-KIT canonical isoform (NM_000222.2) on HEK293 cells (human) (UniProt P10721) (assay: cell array, HEK293).

binding, binds:
B14

Each binder was assayed against human C-KIT short isoform (NM_001093772) on HEK293 cells (human) (UniProt P10721) (assay: cell array, HEK293).

binding, binds:
B14

The binders below were run against human C-KIT-Fc (human) (UniProt P10721) (assay: direct ELISA at 1 µg/ml).

binding, binds:
B1
B14

What follows are binders tested against human C-KIT canonical isoform (NM_000222.2) on HEK293 cells (human) (UniProt P10721) (assay: cell array, HEK293 re-array).

binding, binds:
B14

Each binder was assayed against human C-KIT, full length, on cells (human) (UniProt P10721) (assay: flow cytometry, CHO-K1 transfectants).

binding, binds:
B1
B14

These binders were tested against human C-KIT-Fc (human) (UniProt P10721) (assay: HTRF competition vs labelled h37M IgG).

binding, binds:
B15
B16

What follows are binders tested against human C-KIT-Fc (human) (UniProt P10721) (assay: direct titration ELISA on coated C-KIT-Fc, IgG1 format).

binding, binds:
B14

Each binder was assayed against human C-KIT, full length, on cells (human) (UniProt P10721) (assay: flow cytometry, C-KIT-transfected CHO-K1 cells, IgG1 format).

binding, binds:
B1
B2
B3
B4
B5
B6
B7
B8
B9
B10
B11
B12
B13
B14

These binders were tested against human C-KIT-Fc (human) (UniProt P10721) (assay: HTRF competition on human C-KIT-Fc against terbium-labelled h37M IgG1).

binding, binds:
B2
B5
B7
B9
B11
B12
B13

The binders below were run against human C-KIT-Fc (human) (UniProt P10721) (assay: HTRF epitope competition in solution; competitor IgG1-3M titrated against terbium-labelled h37M IgG1 on biotinylated human C-KIT-Fc).

binding, binds:
B15
B16

Each binder was assayed against human C-KIT-Fc (human) (UniProt P10721) (assay: HTRF epitope competition in solution; unlabelled h37M IgG1-3M titrated against terbium-labelled h37M IgG1 on biotinylated human C-KIT-Fc).

binding, binds:
B17
